Reference: the supplement of paper PMC3334620
Whole data set: some 33,000 sequences, median “E-score (-0.5 to 0.5)” near -0.0034, cut for the highest 2% near 0.25. Some of the results follow.

These sequences were tested against T1, Yap3 (UniProt P38749) (assay: PBM E-score (8-mer binding enrichment) (E-score (-0.5 to 0.5)); higher = stronger / more preferred TF binding). Settings: protein concentration: 100 nM; construct: GST-full length.
T1 sequence: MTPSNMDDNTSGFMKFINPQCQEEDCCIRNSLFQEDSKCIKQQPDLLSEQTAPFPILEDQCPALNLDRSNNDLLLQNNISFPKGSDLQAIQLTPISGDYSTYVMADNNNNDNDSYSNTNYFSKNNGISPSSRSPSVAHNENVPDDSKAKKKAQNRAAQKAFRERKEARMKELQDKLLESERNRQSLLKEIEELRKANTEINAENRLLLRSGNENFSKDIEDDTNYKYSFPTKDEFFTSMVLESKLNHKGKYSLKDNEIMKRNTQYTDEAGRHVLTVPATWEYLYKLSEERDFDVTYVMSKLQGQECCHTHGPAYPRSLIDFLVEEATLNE
Outline: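 Universal all-10-mer Agilent arrays, double-stranded by primer extension on fresh or once-stripped slides, were probed with about 100-200 nM GST-tagged yeast transcription factors made by PURExpress. Fluorescent anti-GST detected bound protein, and masliner normalised the scans. E-scores from the Universal PBM Analysis Suite were given to each ungapped eight-base word pooled with its reverse complement.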

Sequence | PBM E-score
CTCTTCGA | 0.0572
CCGCGAGG | -0.0632
ACCAAGAC | 0.175
ATCCGAAA | 0.0246
GGCAGGAA | -0.0994
GTACGGTA | 0.116
CATATGAG | 0.186
TAGCCTAA | -0.21
ACTGGTGC | -0.0779
GAGGCGGC | 0.0325
GTAGGGAC | -0.23
AAGCTGGG | -0.0964
AGTGCCAC | -0.152
AAAACCGG | -0.0353
AGATGTCC | -0.134
CAGGAAGC | 0.00172
GCGTGCAA | -0.0232
ACTAAATG | 0.0892
GAGTAAAA | 0.0681
GCTGGACA | -0.074
TGGGACCA | -0.0724
AGAGCCAA | -0.0964

Sequence | PBM E-score
AAAAAACC | 0.0612
AAGTGCCG | -0.0332
CTAAGACC | -0.0747
CTCCATAA | -0.0865
ATTGGCGG | -0.0717
CGGAAGCA | 0.112
ACCCCAAG | -0.0314
ATCGGACA | -0.151
CCCTATAC | -0.146
CCCGGTGC | -0.398
AACGTCCA | -0.0321
AAGATCTA | -0.0728
CGGATTAG | 0.075
GCGGCTGA | -0.1
TCCGCAAA | 0.0357
CGTGAATA | 0.193
GACCTTAC | 0.0154
GGAGTCCC | -0.367
TAGTTCAA | 0.0718
CCTATACG | -0.0828
AGTGGTCG | -0.0744
TAGTGAGA | 0.00091

Sequence | PBM E-score
AACTCACG | -0.028
CCAACGGC | -0.213
GGGAAGGA | -0.16
CGGCGGTA | 0.0962
GTTATAGA | 0.0873
AAAAAATG | 0.209
ATGGAGCG | -0.0284
ATCTAACA | 0.12
CGCCACAA | 0.099
ACTCCCCT | -0.237
CAAAGTGC | -0.0192
GATCCTAC | 0.0997
ACTATCAC | -0.00788
AAGGTACT | -0.00394
CTGTGGCA | -0.0995
TAGATCCA | -0.0672
GGGGCCGA | -0.41
CCTTTGAA | -0.0403
CATAGTAA | 0.198
TCGCCACA | 0.141
CGTGATTC | -0.00456
ACGGGGGC | -0.379

Sequence | PBM E-score
GAGGCGGA | -0.157
CCAACAGC | 0.0293
ACTCGTAA | 0.206
CCTGTTAG | 0.121
ATCTGGCG | -0.097
CATATATC | 0.127
AAGTACCC | -0.147
CGCTGGTC | -0.307
ATCTCTGG | -0.271
AGGTGTAA | 0.159
ATCGCGAT | 0.207
CCAGACAG | -0.122
TGGTGACA | 0.0844
CACAGGAA | 0.00598
GCATTGAC | -0.0769
ACAATCGG | 0.103
GGGTGTGA | -0.263
CCTCCGCA | -0.2
CATCCATA | 0.128
TACCCATA | -0.00499

Pulled one by one from the list above (4):
Sequence | PBM E-score
GAGGCGGC | 0.0325
ACCCCAAG | -0.0314
TAGATCCA | -0.0672
ATCTAACA | 0.12
